# No constants are given. Whether binding was seen depends on the method and setting. Some binding calls cover weakened binding; strength is not graded here.
# The chains behind the UniProt entries cited, without tags or fusion partners. Residues count along the entry.
# UniProt Q9Y4B6, residues 562-593: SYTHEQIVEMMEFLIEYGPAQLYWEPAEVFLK
# Molecular target: T1, retinoic acid-related orphan nuclear receptor α (RORα) wild type (UniProt P35398)
# T1 sequence (K38 mono-methylated by EZH2 in cells (the fraction methylated is not stated), looked up): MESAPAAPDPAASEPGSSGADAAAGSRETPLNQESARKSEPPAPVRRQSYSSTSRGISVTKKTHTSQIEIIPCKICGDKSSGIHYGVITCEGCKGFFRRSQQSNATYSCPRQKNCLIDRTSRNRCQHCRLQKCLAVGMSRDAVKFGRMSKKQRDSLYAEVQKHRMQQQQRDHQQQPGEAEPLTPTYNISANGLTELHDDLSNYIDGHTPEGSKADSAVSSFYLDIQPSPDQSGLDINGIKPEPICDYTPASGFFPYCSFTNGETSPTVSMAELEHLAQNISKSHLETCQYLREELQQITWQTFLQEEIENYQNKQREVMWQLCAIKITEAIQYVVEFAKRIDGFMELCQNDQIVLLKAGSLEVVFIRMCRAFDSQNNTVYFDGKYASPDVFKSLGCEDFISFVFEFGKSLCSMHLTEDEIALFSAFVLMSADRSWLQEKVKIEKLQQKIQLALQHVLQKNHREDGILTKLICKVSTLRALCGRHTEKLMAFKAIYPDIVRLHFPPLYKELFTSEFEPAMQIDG
# Test: immunoprecipitation with anti-HA (HA-DCAF1 chromo domain), immunoblot with anti-Flag (FIG. 45)
substance,measurement,value
HA-DCAF1 chromo domain (from UniProt Q9Y4B6 562-593),binding,binds

# Reference: patent publication US20150105326A1
